One data set has as its system HCT-116. The data set can be described thus: Antiproliferative assay (MTT). The class given is cell-based, human. The following applies: ratio of IC50 values. An excerpt: (§1) The MTT assay[53,54] was employed to evaluate the antiproliferative efficacy of new compounds 8a–l against two human cancer cell lines: MCF-7 (breast) and HCT-116 (colorectal carcinoma). Erlotinib was employed as the benchmark. Check Appendix A for additional experimental information.
(§2) The MTT assay[53,54] was used to evaluate the antiproliferative properties of novel compounds 8a–l against two human cancer cell lines: MCF-7 (breast cancer) and HCT-116 (colorectal carcinoma). Erlotinib was utilized as the reference. […] The provided values represent the means of three experiments ± standard deviation (SD). […]
(§3) of Ham's F-12 medium/ Dulbecco's modified Eagle's medium (DMEM) (1:1) supplemented with 10% foetal calf serum (GIBCO, UK), 2 mM glutamine, insulin (10 μg/mL), hydrocortisone (500 ng/mL) and epidermal growth factor (20 ng/mL). Trypsin ethylenediamine tetra acetic acid (EDTA) was used to passage the cells after every 2-3 days. 96-well flat-bottomed cell culture plates were used to seed the cells at a density of 10^4 cells mL-1. The medium was aspirated from all the wells of culture plates after 24 h followed by the addition of synthesized compounds (in 200 μL medium to yield a final concentration of 0.1% (v/v) dimethyl sulfoxide) into individual wells of the plates.
(§4) Four wells were designated to a single compound. The plates were allowed to incubate at 37°C for 96 h. Afterwards, the medium was aspirated and 3-[4,5-dimethylthiazol-2-yl]-2,5-diphenyltetrazolium bromide (MTT) (0.4 mg/mL) in medium was added to each well and subsequently incubated for 3 h. The medium was aspirated and 150 μL dimethyl sulfoxide (DMSO) was added to each well. The plates were vortexed followed by the measurement of absorbance at 540 nm on a microplate reader. […]
(§5) All cell lines […]
(§6) were obtained from ATCC (American Type Cell Culture). […]
(§7) μM), benzamidine HCl (16 μg/mL), NaCl (10 mM),leupeptin (10 μg/mL) and pepstatin (10 μg/mL) at 0°C for 20 min at pH 7.4, followed by centrifugation for 20 min. To eliminate the nonspecifically bound material, a Ni-NTA super flow packed column was (1 picture or pasted object on this page, not shown here)

A further data set deals with MCF-7. The experiment in a line: Antiproliferative assay (MTT). Particulars: ratio of IC50 values. The class given is cell-based, human.
Description: as §1, §2, §3, §4, §5, §6, §7

From publication PMC12679585, “Design, synthesis, and characterization of novel 5-ethylsulfonyl-indazole-3-carboxamides as dual VEGFR-2 and EGFR inhibitors: apoptotic antiproliferative and immunomodulatory evaluations” (RSC Advances, 2025) come the findings set out here.

Take `CCS(=O)(=O)c1ccc2[nH]nc(C(=O)NNC(=O)NC3CCCCC3)c2c1` [Compound 8e, 2-(5-(Ethylsulfonyl)-1H-indazole-3-carbonyl)-N-(cyclohexyl)hydrazine-1-carboxamide]: the “Times less potent than 8h, HCT-116” value in the data set with HCT-116 is given as “approximately 1.40 times”. In addition, the “Times less effective than 8h, MCF-7” value with MCF-7 is given as 1.56 times.
For `CCS(=O)(=O)c1ccc2[nH]nc(C(=O)NNC(=O)NC3CCC(C)CC3)c2c1` (stereo not drawn) [Compound 8f, 2-(5-(Ethylsulfonyl)-1H-indazole-3-carbonyl)-N-(4-methylcyclohexyl)hydrazine-1-carboxamide], in that order: 1.70 times and “half as effective”.
In the case of `CCS(=O)(=O)c1ccc2[nH]nc(C(=O)NNC(=O)NC3CCCCCC3)c2c1` [Compound 8h, 2-(5-(Ethylsulfonyl)-1H-indazole-3-carbonyl)-N-(cycloheptyl)hydrazine-1-carboxamide], the “Times more potent than erlotinib, HCT-116” value in the data set with HCT-116 is “approximately 1.3 times”. For the same compound, in the data set with MCF-7, the “Times more potent than erlotinib, MCF-7” value turned out to be 1.6 times.
